Data: PMC11107207, “Utility of protein–protein binding surfaces composed of anti-parallel alpha-helices and beta-sheets selected by phage display” (The Journal of Biological Chemistry, 2024)
Results are given in words; binding and its absence hold for the method and conditions named. Sequences can lack the tags named with a protein.

The chains behind the UniProt entries cited, without tags or fusion partners. Residues count along the entry.
UniProt Q3U128, residues 27-492: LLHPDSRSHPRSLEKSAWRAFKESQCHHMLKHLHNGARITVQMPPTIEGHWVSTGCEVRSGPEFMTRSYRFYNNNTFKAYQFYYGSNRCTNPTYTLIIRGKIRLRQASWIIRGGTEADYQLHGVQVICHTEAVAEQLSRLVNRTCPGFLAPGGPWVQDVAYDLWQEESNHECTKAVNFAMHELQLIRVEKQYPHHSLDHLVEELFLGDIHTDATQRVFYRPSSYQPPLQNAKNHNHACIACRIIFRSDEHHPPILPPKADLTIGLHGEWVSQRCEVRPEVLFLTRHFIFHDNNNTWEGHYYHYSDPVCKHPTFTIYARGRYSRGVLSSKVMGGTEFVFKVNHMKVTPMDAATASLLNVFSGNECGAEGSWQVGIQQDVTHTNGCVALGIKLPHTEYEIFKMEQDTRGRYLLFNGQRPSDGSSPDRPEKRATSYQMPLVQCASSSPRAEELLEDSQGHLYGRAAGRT

Target: APCDD1 bait fused to the C terminus of Fc (mouse) (UniProt Q3U128)
Experiment: SPR; Biacore, single-cycle kinetics/affinity, five-point dose response; bait-Fc on a proteinG chip; CC4-MBP in the mobile phase; done at Cayman Chemical; both purified

B1: WT CC4-MBP (domain or fragment, mouse)
chain: PMRNPTDSLYCCDRAEDHACQNACKRILMSKKTEMEIVDGLIEGCKTQPLPQDPLWQCFLESSQS
notes: mouse RECK, CC domain 4 (CC4), a 4-helix bundle of 65 amino acids; also called RECK(CC4); source: E. coli SHuffle, purified (Ni-NTA)
binding: no binding (tested: KD >50 μM)
